Experimental data as given in patent publication EP0306160A2, “Molluscicides” (BRITISH TECHNOLOGY GROUP LIMITED, priority 1987, dated 1989).

Tests used:
Deroceras reticulatum = assay: Bait bioassay with increasing concentrations in standard bait (Examples 19-35); assay type: in vivo; conditions: for Eaten (%): 0.5 g bait, 10 slugs, 4 days; for a.i.ingested: total over six groups of ten slugs offered bait containing 1,4,7,10,13 or 16% a.i.
[1] = system: grey field slugs, Deroceras reticulatum; assay: Stomach poison action, voluntary feeding (wheatmeal bait); assay type: in vivo

Molecule	Eaten (%) (Deroceras reticulatum; 1 % a.i. in standard bait)	Eaten (%) (Deroceras reticulatum; 4 % a.i. in standard bait)	Eaten (%) (Deroceras reticulatum; 7 % a.i. in standard bait)	Eaten (%) (Deroceras reticulatum; 10 % a.i. in standard bait)	Eaten (%) (Deroceras reticulatum; 13 % a.i. in standard bait)	Eaten (%) (Deroceras reticulatum; 16 % a.i. in standard bait)	a.i.ingested (Deroceras reticulatum)	also measured
CC(=O)C=C(C)[O][Al]([O]C(C)=CC(C)=O)[O]C(C)=CC(C)=O [Example 19, Tris (2,4-pentanedionato) Al III]	100%	44%	29%	20%	19%	20%	–	Bait eaten by 10 slugs ([1]; 0.01 % Al in wheatmeal bait): 1.46 (Ex.3) g Dry Wt; Bait eaten by 10 slugs ([1]; 0.03 % Al in wheatmeal bait): 0.95 (Ex.4) g Dry Wt; Bait eaten by 10 slugs ([1]; 0.1 % Al in wheatmeal bait): 0.80 (Ex.5) g Dry Wt; Bait eaten by 10 slugs ([1]; 0.1 % Metal in wheatmeal bait (Table III)): 0.315 (Ex. 9) g Dry Wt.; Bait eaten by 10 slugs ([1]; 0.3 % Al in wheatmeal bait): 0.51 (Ex 6) g Dry Wt; Bait eaten by 10 slugs ([1]; 0.5 % Metal in wheatmeal bait (Table III)): 0.105 (Ex. 10) g Dry Wt.; Bait eaten by 10 slugs ([1]; 1.0 % Al in wheatmeal bait): 0.43 (Ex.7) g Dry Wt; Bait eaten by 10 slugs ([1]; 1.0 % Metal in wheatmeal bait (Table III)): 0.120 (Ex. 11) g Dry Wt.; Bait eaten by 10 slugs ([1]; 3.0 % Al in wheatmeal bait): 0.52 (Ex.8) g Dry Wt; Bait eaten by 10 slugs ([1]; 5.0 % Metal in wheatmeal bait (Table III)): 0.180 (Ex. 12) g Dry Wt.; Bait eaten by 10 slugs ([1]; 10.0 % Metal in wheatmeal bait (Table III)): 0.090 (Ex. 13) g Dry Wt.
CCC(=O)C=C(C)[O][Al]([O]C(C)=CC(=O)CC)[O]C(C)=CC(=O)CC [Example 20, Tris (2,4-hexanedionato) Al III]	100%	100%	58%	29%	26%	22%	–	–
CCC(=O)C=C(CC)[O][Al]([O]C(=CC(=O)CC)CC)[O]C(=CC(=O)CC)CC [Example 21, Tris (3,5-heptanedionato) Al III]	100%	100%	>10%	>10%	>10%	>10%	–	–
CN(N=O)[O][Fe]([O]N(C)N=O)[O]N(C)N=O [Example 22, Tris (N-nitroso-N-methyl hydroxylaminato) Fe III]	17%	11%	4%	8%	5%	7%	–	–
CCN(N=O)[O][Fe]([O]N(CC)N=O)[O]N(CC)N=O [Example 30, Tris (N-nitroso-N-ethyl hydroxylaminato) Fe III]	–	–	–	–	–	–	6 mg/60 slugs	–
CCCN(N=O)[O][Fe]([O]N(CCC)N=O)[O]N(CCC)N=O [Example 31, Tris (N-nitroso-N-n-propyl hydroxylaminato) Fe III]	–	–	–	–	–	–	55 mg/60 slugs	–
CC(C)N(N=O)[O][Fe]([O]N(N=O)C(C)C)[O]N(N=O)C(C)C [Example 32, Tris (N-nitroso-N-2-propyl hydroxylaminato) Fe III]	–	–	–	–	–	–	3 mg/60 slugs	–
CCCCN(N=O)[O][Fe]([O]N(CCCC)N=O)[O]N(CCCC)N=O [Example 33, Tris (N-nitroso-N-n-butyl hydroxylaminato) Fe III]	–	–	–	–	–	–	53 mg/60 slugs	–
CCC(C)N(N=O)[O][Fe]([O]N(N=O)C(C)CC)[O]N(N=O)C(C)CC (stereo not drawn) [Example 34, Tris (N-nitroso-N-2-butyl hydroxylaminato) Fe III]	–	–	–	–	–	–	54 mg/60 slugs	–
CC(C)CN(N=O)[O][Fe]([O]N(CC(C)C)N=O)[O]N(CC(C)C)N=O [Example 35, Tris (N-nitroso-N-2-methylpropyl hydroxylaminato) Fe III]	–	–	–	–	–	–	160 mg/60 slugs	–
Aluminium sulphate [reference compound]	–	–	–	–	–	–	–	Bait eaten by 10 slugs ([1]; 0.01 % Al in wheatmeal bait): 1.31 g Dry Wt; Bait eaten by 10 slugs ([1]; 0.03 % Al in wheatmeal bait): 1.08 g Dry Wt; Bait eaten by 10 slugs ([1]; 0.1 % Al in wheatmeal bait): 0.62 g Dry Wt; Bait eaten by 10 slugs ([1]; 0.3 % Al in wheatmeal bait): 0.89 g Dry Wt; Bait eaten by 10 slugs ([1]; 1.0 % Al in wheatmeal bait): 0.41 g Dry Wt; Bait eaten by 10 slugs ([1]; 3.0 % Al in wheatmeal bait): 0.42 g Dry Wt
Tris (1-dimethoxy-2, 4-pentanedionato) Al III [Example 29]	–	–	–	–	–	–	35 mg/60 slugs	–
